According to PubChem BioAssay AID1347423 (Functional Genomics Laboratory (NCATS/FGL), 2020):
In all, about 52,000 sequences went through this assay and about 210 (0.4%) were called active.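 Rule for the calls: active = gene whose silencing raises cell survival under the drug, median off-target-corrected z-score across its silencing RNAs 2 or more; inactive = the rest.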 The list shows a part of the results.

test: Resistance to Poly (ADP-Ribose) Polymerase inhibitor: Gene Identification via Genome-wide siRNA Screen; details: mouse BRCA2 R2336H ES cells, olaparib, CellTiter-Glo viability; stronger effect = higher value
Outline: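 Mouse BRCA2 R2336H ES cells were reverse-transfected with siRNA (20 nM final), treated at 48 h with 500 nM olaparib, and read by CellTiter-Glo after 72 h. Scores: MAD-based z per siRNA, median per gene, seed off-target correction.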

Row | Sequence | z-score
1 | GGAAAAAUUGACCAAAGGATT against 1200011I18Rik | inactive: -2.01
2 | GGGUCUACAAUCACCAGACTT against Wnt10a | inactive: 2.06
3 | GGAAACAAGAUUACAUCAATT against Adamts2 | inactive: 0.527
4 | CCUCGUAUUUAUACUCAGUTT against Gpr18 | inactive: 0.757
5 | CAUUGAAUUCCUGCUCUCCTT against Defcr-rs2 | inactive: -0.164
6 | GCCCGCACAAUCGUACUUUTT against Ccl28 | inactive: 0.889
7 | GGACAAUGAAGGAAUUGAUTT against Mdm4 | inactive: 0.424
8 | GGAAUGUUGUUCUCAAGAUTT against Ddhd1 | inactive: 1.49
9 | GGUACUAAACUUCUUCAACTT against Rsu1 | inactive: -0.018
10 | GGCUUUUUCCUCUAUCUGATT against Thoc1 | inactive: -2.97
11 | GGUCCAGUCAGGAAACACATT against 4933425F06Rik | inactive: -0.692
12 | GGGUUAUCCAAGUCUUUUCTT against Olfr617 | inactive: 0.87
13 | GGAUGGCUCCAUUGUCAUATT against Mpz | inactive: -0.714
14 | GGAACUUAAUCACCCUAAUTT against Cdk2 | inactive: -1.15
15 | GCCUGUUUAGAAUUAGAGATT against 9930023K05Rik | inactive: 0.647
16 | GCUGAAGGAGAAAUUCACCTT against Ptgds | inactive: 1.44
17 | GGCAUGAUUAUUGUGUUUGTT against Abcb11 | inactive: 0.00178
18 | GCCGUUAACCUCAAGUUUUTT against Lrrn3 | inactive: -0.0628
19 | CCUCCCUAUUCUAUGGUAGTT against Prss34 | inactive: -0.23
20 | GGCAUUUGUAAUUCCAGUUTT against 4732415M23Rik | inactive: -1.29
21 | CCUAACCUGAAAGUUCCAGTT against 2810423G08Rik | inactive: 0.633
22 | GCAUGUGUUACAUAGAAAUTT against Deb1 | inactive: -1.68
23 | CGAAAAUCAAGCGGAAUUUTT against BC065120 | inactive: -0.715
24 | GCAAGAACUUCGCUGCUCUTT against 1500032L24Rik | inactive: 0.915
25 | CCUGUUUCUGACCUAAUACTT against Syn1 | inactive: -1
26 | GGGUAGGUUGUGUUUGCAUTT against Dmn | inactive: 1.46

Row | Sequence | z-score
27 | CCAACGGAUGCUCAAACAATT against Aspscr1 | inactive: 1.89
28 | GGAGAAGAAGUCCAAAGGATT against Tnfaip2 | inactive: -1.05
29 | GGCCAUCAGAUAAAAGUUGTT against Rutbc2 | inactive: 0.378
30 | GGCACAAAGGCAGUUAUUCTT against 1110049G11Rik | inactive: 0.847
31 | GGUAUUGAAUACAGGAAUUTT against C330049O21Rik | inactive: -1.15
32 | CCGUUAGGUUUUUAUCCAATT against Ube2b | inactive: 0.368
33 | GCCGAGCCAUAUGACACUATT against Tlk2 | inactive: 2.5
34 | GGAACGUGAAUCUACAGCATT against 1700065I17Rik | inactive: -0.494
35 | CCCAACUUUGGGCUUGUCUTT against 2610111M03Rik | inactive: -2.37
36 | GGCCAACAAGAUUCUAGAGTT against 1110028E10Rik | inactive: -1.83
37 | GCUCCAUUGGGUGUGAACATT against Apg4d | inactive: -2.56
38 | GGCCAUGAUUUACGACGACTT against C1qtnf4 | inactive: 1.38
39 | CCGUGAAAGUACAUUGUAUTT against E330009J07Rik | inactive: -0.393
40 | GCCCUUGGAAACACCAAUATT against Mustn1 | inactive: 1.38
41 | GGAACAAGUGUCUGACAGUTT against 0610039A15Rik | inactive: -0.636
42 | GGAGCUUCAGGUGAAGCGATT against 2010309E21Rik | inactive: 0.0859
43 | GGCCUCUACUUCUUUGAAUTT against Cklfsf6 | inactive: -0.343
44 | CCGAGGAUGGCCACAUAUGTT against Tmprss8 | inactive: -1.43
45 | CCUAGUGAGCACUGUACUUTT against Olfr988 | inactive: 0.118
46 | GCCCAUUCAUAUGUAUAUCTT against Clpp | inactive: -0.332
47 | GCAGUUAUAUGCUCAAGAUTT against Pik3r3 | inactive: 1.38
48 | GGCUUCAAUCCUGACGAGATT against 6.33E+19 | inactive: 0.196
49 | GGUGGACUUUAGUCCUGUGTT against Bpil3 | inactive: -1.62
50 | GGACAUGAGUUACAUGACATT against Galnt5 | inactive: 1.41
51 | GCAUGAGAGCCUAUGCAGCTT against Man2b2 | inactive: 1.54
52 | GCUGGUACAGCGUAUACCATT against AW555464 | inactive: 0.645

Row | Sequence | z-score
53 | AAGCUUCAACAUCAGUUUGTT against Olfr1392 | inactive: 0.106
54 | CGGCCUGUAAGAACAAACATT against Cdc37l1 | inactive: 1.89
55 | GGUUGUGCUGAAGAAUUCUTT against Cspg4 | inactive: -2.32
56 | GGAGACAGAAUCAUAGUUATT against Sh3yl1 | inactive: -1.21
57 | GGAAAAUAUGUGUAGGGAATT against Nkx2-2 | inactive: 0.407
58 | GGAAAAGGAAUUCUCCAGATT against 6620401K05Rik | inactive: -1.08
59 | GGAAAUCAACAGCUCACAUTT against C76566 | inactive: -0.926
60 | CCUGUUUAAACUCUGCGGATT against Vit | inactive: 0.563
61 | GGAGAAAGGAGACCUAAAGTT against Mmab | inactive: -1.27
62 | GCAGCUUGACCAAGUCCAUTT against D11Ertd498e | inactive: 0.992
63 | GGACAAUUGAGGAACUUCUTT against Tkt | inactive: 1.81
64 | CGAUAAAAGACCCAAAUUATT against Emx2 | inactive: 0.942
65 | GCUGGGAUAUUACAUUCUATT against 9030625G08Rik | inactive: -1.3
66 | GGUGGACUCAAAAUUAGAATT against 1810054D07Rik | inactive: 0.765
67 | CCAACUCGAAGCAAUAUGCTT against Morf4l2 | inactive: 0.711
68 | GGUUUCCAUCUGAAUAAAATT against Tmem8 | inactive: -0.497
69 | GCACUGUUGUACUUGACUGTT against Fancg | inactive: 0.201
70 | CCACCACCAUCUAAAUAUATT against 2610318C08Rik | inactive: 0.95
71 | GGCCAUCCAAGCAUGAGUUTT against 1110032A13Rik | inactive: -0.734
72 | GGCUCAUCUACCACGAGGUTT against Sprrl10 | inactive: -0.239
73 | GGCUUCAAACAUCCGUUCGTT against Foxb2 | inactive: -0.0682
74 | GGGCUUACUGCUUAAUAGATT against 4833415N24Rik | inactive: -0.00576
75 | GGAUGAAGACUAAUACUAATT against Ltbp2 | inactive: 0.0321
76 | GGAGAACCUUGUGGACAAGTT against Xpnpep1 | inactive: -0.55
77 | GGCGAAUUGUAUUUGAAAGTT against Lactb | inactive: 0.645
78 | CGAGAAAGUAUUGACCGAGTT against Anxa5 | inactive: -0.935

Looked up above:
z-score, CCUGUUUCUGACCUAAUACTT against Syn1 is entered as inactive: -1
z-score, GGUAUUGAAUACAGGAAUUTT against C330049O21Rik is entered as inactive: -1.15

Next part

Row | Sequence | z-score
79 | GCAGAAUGCUCACGUGGAUTT against C530030I18Rik | inactive: 0.117
80 | GCCUCUGAGUUGCAUGAGUTT against Ppp2r5b | active: 2.37
81 | GGACAGCAGCGUGAACUAUTT against Cart1 | inactive: -0.559
82 | GGAUCUGGAGGACGAUUCATT against 1700020L24Rik | inactive: 0.338
83 | GGAGAAAACUUAGAUUACCTT against Ppil4 | inactive: -0.486
84 | CCUGUCGACCUUAUUGUAATT against V1ri2 | inactive: -0.857
85 | GCCUAUAUAUGGUCUAUAUTT against Slc26a2 | inactive: -0.353
86 | GGCAUGUACCAUGUUUUUGTT against Wdr13 | inactive: 0.853
87 | GGAUUACCAGUCUGGAAGUTT against Eef1d | inactive: 0.0783
88 | GGUUUCUAUAAAUCUCCCUTT against Eif4b | inactive: -0.214
89 | GGGUUUCUGAGAUUACUGCTT against Ovca2 | inactive: 0.302
90 | GGUCAAGAUGCAGAAAGGUTT against Odf2 | inactive: 0.6
91 | GGUGAUUGUUAGAGUUAAATT against Syt4 | inactive: 0.95
92 | GGAAAUUGUACUCUCCACATT against 2700099C19Rik | inactive: -0.425
93 | GGUAAAGACUGUGUCAUUUTT against 2600014M03Rik | inactive: 0.692
94 | GGGCUUCUUACCAGUCAGATT against Cdca1 | inactive: -2.01
95 | GGAACAACUGUAAGUCCACTT against Kng2 | inactive: -0.00724
96 | GGUGCUUUCUGGAUGAAGATT against 6330407G11Rik | inactive: -0.774
97 | GCUUUGUCUCAAAGAAAAATT against Olfr145 | inactive: 0.165
98 | GGCUUAAGUAUUUUUCUGATT against Fts | inactive: 0.246
99 | GGAGGUAGAAAAAACACAATT against 4930511A21Rik | inactive: 0.686
100 | CCCGAUUGAUAUUCCAAACTT against Piwil1 | inactive: -0.249
101 | GGAUCCUUACUACAGAUUUTT against Manba | inactive: -1.08
102 | GCAUCAAACAAUUUGUCGUTT against Ptgis | inactive: 0.827
103 | GGACAAACAGGGAGAAAGATT against Mogat2 | inactive: -0.581

Random excerpt: three records from the list
Row | Sequence | z-score
86 | GGCAUGUACCAUGUUUUUGTT against Wdr13 | inactive: 0.853
94 | GGGCUUCUUACCAGUCAGATT against Cdca1 | inactive: -2.01
100 | CCCGAUUGAUAUUCCAAACTT against Piwil1 | inactive: -0.249
